Source: the supplement of paper PMC10849652
This is one part of the list.

Protein sequences, listed by entry. Tags and fused reporters are not part of them. Lines headed by an entry give the natural chain unless they say otherwise; changes in a name come on top.
UniProt Q8TBC3: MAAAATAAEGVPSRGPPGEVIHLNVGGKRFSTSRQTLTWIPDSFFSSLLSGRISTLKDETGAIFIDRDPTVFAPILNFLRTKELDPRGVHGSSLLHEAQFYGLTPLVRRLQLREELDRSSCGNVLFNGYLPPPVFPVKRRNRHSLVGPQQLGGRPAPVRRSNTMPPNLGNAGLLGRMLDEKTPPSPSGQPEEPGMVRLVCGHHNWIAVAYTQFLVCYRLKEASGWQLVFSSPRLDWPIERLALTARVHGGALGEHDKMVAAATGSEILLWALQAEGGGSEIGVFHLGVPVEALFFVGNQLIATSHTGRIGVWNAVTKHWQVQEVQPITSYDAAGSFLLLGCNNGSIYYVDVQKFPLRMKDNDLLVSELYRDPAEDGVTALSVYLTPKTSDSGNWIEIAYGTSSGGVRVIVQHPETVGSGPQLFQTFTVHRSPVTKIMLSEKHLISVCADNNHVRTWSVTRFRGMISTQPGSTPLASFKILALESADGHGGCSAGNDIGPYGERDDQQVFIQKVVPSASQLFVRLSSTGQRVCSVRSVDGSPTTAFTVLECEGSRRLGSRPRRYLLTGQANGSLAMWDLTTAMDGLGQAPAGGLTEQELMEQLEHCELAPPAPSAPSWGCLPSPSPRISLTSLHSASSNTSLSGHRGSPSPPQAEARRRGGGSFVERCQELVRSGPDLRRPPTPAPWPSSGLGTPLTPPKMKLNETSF
UniProt Q9Y3B4: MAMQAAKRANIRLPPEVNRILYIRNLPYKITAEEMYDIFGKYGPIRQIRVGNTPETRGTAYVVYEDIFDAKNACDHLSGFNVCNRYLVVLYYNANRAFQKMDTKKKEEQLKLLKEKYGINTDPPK
UniProt Q9BX95: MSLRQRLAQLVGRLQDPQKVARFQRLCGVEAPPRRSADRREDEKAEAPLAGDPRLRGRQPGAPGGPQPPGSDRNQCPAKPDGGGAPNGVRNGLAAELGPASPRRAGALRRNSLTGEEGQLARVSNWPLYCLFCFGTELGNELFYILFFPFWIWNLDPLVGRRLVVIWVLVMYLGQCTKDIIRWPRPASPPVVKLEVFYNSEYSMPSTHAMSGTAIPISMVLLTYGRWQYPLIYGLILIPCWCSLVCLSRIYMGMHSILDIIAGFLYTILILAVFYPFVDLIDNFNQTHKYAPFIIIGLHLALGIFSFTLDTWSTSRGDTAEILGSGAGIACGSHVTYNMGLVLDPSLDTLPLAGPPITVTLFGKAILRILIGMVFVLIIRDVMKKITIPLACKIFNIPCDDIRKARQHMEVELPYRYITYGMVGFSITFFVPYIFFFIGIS
UniProt Q96ES7: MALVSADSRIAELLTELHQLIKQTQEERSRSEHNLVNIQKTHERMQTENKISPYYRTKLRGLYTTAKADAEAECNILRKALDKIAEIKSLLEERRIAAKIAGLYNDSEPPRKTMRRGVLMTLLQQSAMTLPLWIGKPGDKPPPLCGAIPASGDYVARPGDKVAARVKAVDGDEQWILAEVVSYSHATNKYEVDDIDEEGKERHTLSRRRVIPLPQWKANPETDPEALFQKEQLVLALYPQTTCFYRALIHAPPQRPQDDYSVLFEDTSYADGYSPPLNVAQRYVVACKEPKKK
UniProt Q8N697: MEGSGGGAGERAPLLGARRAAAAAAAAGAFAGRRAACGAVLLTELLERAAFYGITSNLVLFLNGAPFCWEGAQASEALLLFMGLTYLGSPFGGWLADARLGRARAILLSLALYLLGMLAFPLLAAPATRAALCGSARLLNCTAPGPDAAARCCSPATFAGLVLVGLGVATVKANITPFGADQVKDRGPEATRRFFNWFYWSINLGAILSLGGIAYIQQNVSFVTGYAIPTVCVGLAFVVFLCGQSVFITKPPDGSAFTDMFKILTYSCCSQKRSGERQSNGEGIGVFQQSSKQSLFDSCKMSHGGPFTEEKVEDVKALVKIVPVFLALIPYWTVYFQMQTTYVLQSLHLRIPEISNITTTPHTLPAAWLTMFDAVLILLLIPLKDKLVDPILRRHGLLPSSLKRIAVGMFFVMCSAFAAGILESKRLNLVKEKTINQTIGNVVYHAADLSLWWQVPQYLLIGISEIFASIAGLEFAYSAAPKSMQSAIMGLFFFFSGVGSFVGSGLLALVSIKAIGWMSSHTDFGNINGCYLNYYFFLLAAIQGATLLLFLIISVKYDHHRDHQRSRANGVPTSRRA
UniProt Q8WVK7: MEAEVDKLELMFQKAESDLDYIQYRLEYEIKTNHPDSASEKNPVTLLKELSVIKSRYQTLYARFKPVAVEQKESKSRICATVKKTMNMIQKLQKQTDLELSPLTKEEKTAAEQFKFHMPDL
UniProt Q96FS4: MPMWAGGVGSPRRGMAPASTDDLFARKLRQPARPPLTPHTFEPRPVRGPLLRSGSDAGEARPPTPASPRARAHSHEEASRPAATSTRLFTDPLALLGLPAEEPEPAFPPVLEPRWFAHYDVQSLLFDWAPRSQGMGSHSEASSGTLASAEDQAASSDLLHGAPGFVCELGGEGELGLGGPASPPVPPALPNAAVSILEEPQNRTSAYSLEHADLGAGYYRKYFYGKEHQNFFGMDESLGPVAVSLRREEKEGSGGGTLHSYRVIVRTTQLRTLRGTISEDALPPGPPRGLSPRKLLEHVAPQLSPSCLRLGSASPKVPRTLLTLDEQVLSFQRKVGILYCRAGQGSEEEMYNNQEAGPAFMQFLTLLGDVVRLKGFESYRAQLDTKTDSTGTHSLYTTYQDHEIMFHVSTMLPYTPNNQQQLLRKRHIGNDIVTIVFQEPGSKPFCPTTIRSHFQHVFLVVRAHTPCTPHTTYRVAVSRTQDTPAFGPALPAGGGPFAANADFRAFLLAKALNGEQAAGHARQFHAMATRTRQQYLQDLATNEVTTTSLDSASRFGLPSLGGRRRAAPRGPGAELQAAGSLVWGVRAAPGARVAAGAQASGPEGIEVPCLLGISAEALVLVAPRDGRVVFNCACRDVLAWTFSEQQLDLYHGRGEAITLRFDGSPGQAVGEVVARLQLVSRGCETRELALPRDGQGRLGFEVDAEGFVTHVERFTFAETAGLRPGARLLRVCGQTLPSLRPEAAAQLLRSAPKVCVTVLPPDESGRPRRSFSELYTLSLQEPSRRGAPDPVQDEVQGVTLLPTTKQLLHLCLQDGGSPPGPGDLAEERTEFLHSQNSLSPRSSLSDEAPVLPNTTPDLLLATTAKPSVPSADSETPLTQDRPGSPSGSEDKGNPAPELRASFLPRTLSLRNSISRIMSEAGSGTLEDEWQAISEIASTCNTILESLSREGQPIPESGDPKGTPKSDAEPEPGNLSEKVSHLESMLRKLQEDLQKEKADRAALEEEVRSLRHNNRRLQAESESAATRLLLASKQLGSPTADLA
UniProt O75533, whole entry, looked up: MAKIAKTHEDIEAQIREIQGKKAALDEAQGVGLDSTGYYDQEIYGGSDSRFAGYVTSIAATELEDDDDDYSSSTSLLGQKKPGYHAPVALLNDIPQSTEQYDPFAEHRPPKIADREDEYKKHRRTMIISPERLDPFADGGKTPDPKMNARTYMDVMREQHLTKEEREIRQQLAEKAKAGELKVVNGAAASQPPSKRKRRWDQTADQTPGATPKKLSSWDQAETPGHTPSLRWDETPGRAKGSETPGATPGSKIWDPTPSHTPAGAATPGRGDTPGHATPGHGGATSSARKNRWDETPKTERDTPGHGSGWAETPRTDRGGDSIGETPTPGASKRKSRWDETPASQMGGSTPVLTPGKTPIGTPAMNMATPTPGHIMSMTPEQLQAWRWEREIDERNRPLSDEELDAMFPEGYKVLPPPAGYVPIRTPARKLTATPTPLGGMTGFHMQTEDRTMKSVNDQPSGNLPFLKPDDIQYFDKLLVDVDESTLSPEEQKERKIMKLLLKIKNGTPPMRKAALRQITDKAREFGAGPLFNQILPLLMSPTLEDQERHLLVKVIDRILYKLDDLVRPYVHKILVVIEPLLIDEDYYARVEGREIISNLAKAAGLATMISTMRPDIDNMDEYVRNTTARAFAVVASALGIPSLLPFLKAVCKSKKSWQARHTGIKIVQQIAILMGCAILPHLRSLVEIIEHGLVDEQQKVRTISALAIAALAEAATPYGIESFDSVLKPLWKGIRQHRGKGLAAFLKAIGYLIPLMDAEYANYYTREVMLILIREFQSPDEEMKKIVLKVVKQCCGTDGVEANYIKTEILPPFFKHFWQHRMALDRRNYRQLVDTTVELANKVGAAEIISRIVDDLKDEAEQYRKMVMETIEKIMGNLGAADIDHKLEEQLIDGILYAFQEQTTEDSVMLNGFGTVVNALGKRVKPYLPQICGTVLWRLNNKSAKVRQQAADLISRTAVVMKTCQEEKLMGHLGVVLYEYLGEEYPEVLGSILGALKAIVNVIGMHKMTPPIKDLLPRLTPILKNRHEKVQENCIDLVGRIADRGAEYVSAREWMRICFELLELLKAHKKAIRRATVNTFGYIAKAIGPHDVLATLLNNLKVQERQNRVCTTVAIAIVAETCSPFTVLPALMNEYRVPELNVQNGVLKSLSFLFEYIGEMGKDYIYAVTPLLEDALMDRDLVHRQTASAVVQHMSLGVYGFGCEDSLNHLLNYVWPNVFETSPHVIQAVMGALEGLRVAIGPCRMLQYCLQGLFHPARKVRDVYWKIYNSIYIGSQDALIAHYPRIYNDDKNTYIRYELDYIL
UniProt Q9H9B4: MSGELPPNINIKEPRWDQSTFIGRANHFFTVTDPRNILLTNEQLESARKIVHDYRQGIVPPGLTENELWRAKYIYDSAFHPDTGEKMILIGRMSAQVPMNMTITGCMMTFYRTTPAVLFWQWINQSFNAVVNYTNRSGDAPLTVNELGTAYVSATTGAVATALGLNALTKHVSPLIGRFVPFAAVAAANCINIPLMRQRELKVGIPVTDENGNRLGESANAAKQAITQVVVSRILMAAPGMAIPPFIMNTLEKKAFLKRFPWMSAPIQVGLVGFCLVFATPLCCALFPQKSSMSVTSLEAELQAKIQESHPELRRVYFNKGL
UniProt Q99720, whole entry, looked up: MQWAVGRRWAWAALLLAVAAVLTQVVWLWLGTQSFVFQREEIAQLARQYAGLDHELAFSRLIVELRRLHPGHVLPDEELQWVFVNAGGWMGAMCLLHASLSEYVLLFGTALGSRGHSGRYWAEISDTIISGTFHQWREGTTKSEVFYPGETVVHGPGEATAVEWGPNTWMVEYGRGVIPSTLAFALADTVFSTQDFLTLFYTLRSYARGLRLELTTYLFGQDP
UniProt Q96ST3: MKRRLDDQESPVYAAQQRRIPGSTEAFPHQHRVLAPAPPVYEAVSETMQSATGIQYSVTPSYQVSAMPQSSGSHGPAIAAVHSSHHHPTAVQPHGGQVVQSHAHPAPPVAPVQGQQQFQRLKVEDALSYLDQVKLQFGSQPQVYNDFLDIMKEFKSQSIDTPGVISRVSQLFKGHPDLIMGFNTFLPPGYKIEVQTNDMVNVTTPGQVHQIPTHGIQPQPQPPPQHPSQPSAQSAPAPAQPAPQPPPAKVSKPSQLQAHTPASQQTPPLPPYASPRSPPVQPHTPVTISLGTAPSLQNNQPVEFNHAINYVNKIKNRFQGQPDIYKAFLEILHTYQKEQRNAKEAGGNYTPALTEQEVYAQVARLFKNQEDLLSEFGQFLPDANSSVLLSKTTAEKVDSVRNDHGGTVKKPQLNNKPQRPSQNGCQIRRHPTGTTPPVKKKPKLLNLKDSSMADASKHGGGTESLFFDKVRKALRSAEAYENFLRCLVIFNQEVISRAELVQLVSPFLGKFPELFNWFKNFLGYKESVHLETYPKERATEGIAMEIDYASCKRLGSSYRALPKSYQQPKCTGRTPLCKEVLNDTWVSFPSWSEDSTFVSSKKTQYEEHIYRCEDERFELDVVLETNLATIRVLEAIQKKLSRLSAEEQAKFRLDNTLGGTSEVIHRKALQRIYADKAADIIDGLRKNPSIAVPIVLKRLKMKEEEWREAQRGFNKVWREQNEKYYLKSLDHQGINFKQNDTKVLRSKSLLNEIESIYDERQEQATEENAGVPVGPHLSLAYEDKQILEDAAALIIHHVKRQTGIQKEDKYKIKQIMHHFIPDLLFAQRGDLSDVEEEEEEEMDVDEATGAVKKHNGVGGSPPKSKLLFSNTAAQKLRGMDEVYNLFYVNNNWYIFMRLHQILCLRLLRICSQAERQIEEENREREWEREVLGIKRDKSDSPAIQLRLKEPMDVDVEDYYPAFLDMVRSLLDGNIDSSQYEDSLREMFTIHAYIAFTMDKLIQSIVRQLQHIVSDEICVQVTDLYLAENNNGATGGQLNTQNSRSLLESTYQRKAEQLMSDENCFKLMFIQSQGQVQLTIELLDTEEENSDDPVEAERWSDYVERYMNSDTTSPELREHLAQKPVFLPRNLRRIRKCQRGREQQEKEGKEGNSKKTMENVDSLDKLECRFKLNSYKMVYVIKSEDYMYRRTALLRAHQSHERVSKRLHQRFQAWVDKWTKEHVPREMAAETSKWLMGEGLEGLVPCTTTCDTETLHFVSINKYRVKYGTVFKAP
UniProt P63208, whole entry, looked up: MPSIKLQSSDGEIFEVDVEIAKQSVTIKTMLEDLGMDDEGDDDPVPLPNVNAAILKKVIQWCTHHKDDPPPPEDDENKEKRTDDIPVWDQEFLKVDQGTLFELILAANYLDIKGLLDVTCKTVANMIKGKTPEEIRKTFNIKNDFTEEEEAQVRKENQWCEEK

Key:
Assay in all cases: log2 fold change, soluble protein after heating vs DMSO (PISA); higher = thermal stabilisation; K562 lysate, 10 uM; active = over 0.2 and 3.5 SD of the protein, either way, in both replicates (recomputed)
[1] = compound: C1=CC=C(C=C1)[C@H](COC2=CC3=C(C=C2)NC(=O)N3)NC(=O)C4=CC=CN(C4=O)CC5=CC(=C(C=C5)F)F
Method in brief: (§1)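 Thermal stability, expressed as log-two fold change relative to solvent controls, is given from duplicates. Crude K562 extract in PBS pH 7.4 with 1 mM MgCl2, at 1 mg/mL protein, was treated with 10 μM compound for 30 min and heated in aliquots for 3 min across 48°C-58°C. After pooling, adjustment to 0.5% NP-40 at 4°C and centrifugation at 21,000xg for 90 min, supernatant protein was measured by TMTpro 16plex LC-MS/MS with channel sums equalised.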

[2] = compound: CC1=C(SC2=C1C(=N[C@H](C3=NN=C(N32)C)CC(=O)N)C4=CC=C(C=C4)Cl)C
Method in brief: as §1

[3] = compound: CC1=C2C(=CC=C1)N=C(N(C2=O)C3=CC=CC=C3C)CN4C=NC5=C(N=CN=C54)N
Method in brief: as §1

[4] = compound: Cc1sc2c(c1C)C(c1ccc(Cl)cc1)=N[C@@H](CC(=O)OC(C)(C)C)c1nnc(C)n1-2
Method in brief: as §1

[5] = compound: c1ccc([C@@H]2C[C@H]2NC2CCNCC2)cc1
Method in brief: as §1

Measured: log2 fold change

SHKBP1 (UniProt Q8TBC3)
inactive: [1] 0.016 | [2] 0.02 | [3] 0.077 | [4] -0.027 | [5] 0.007

SF3B6 (UniProt Q9Y3B4)
inactive: [1] 0.052 | [2] -0.032 | [3] -0.184 | [4] 0.014 | [5] 0

SLC20A1 (UniProt Q8WUM9)
inactive: [1] 0.071 | [2] -0.048 | [3] 0.007 | [4] -0.046 | [5] 0.024

SGPP1 (UniProt Q9BX95)
inactive: [1] 0.093 | [2] 0.069 | [3] -0.002 | [4] -0.042 | [5] 0.061

SGF29 (UniProt Q96ES7)
inactive: [1] 0.031 | [2] 0.044 | [3] -0.121 | [4] -0.052 | [5] 0.03

SESN2 (UniProt P58004)
inactive: [1] -0.074 | [2] 0.01 | [3] -0.025 | [4] -0.004 | [5] -0.01

SERPINB6, A0A087X1N8
inactive: [1] 0.032 | [2] -0.04 | [3] -0.025 | [4] -0.012 | [5] -0.034

SETD1A (UniProt O15047)
inactive: [1] 0.017 | [2] -0.015 | [3] 0.034 | [4] -0.038 | [5] -0.036

SGTA (UniProt O43765)
inactive: [1] -0.024 | [2] -0.051 | [3] -0.009 | [4] 0.014 | [5] 0.001

SHMT2 (UniProt P34897)
inactive: [1] 0.014 | [2] 0.015 | [3] -0.001 | [4] 0.008 | [5] 0.008

SH3BGRL3 (UniProt Q9H299)
inactive: [1] -0.015 | [2] -0.019 | [3] -0.007 | [4] -0.041 | [5] -0.041

SH3BGRL (UniProt O75368)
inactive: [1] 0.013 | [2] -0.012 | [3] -0.022 | [4] 0.009 | [5] -0.014

SLC17A5 (UniProt Q9NRA2)
inactive: [1] -0.173 | [2] 0.008 | [3] -0.176 | [4] 0.014 | [5] 0.008

3 consecutive entries out of the list so far, for reference:
SETD1A (UniProt O15047)
inactive: [1] 0.017 | [2] -0.015 | [3] 0.034 | [4] -0.038 | [5] -0.036

SGTA (UniProt O43765)
inactive: [1] -0.024 | [2] -0.051 | [3] -0.009 | [4] 0.014 | [5] 0.001

SHMT2 (UniProt P34897)
inactive: [1] 0.014 | [2] 0.015 | [3] -0.001 | [4] 0.008 | [5] 0.008

Later entries

SFN (UniProt P31947)
inactive: [1] 0.039 | [2] -0.033 | [3] -0.023 | [4] 0.041 | [5] 0.046

SERPINB13 (UniProt Q9UIV8)
inactive: [1] -0.158 | [2] 0.232

SLC10A7 isoform 1 (UniProt Q0GE19)
inactive: [1] -0.033 | [2] 0.015 | [3] 0.015 | [4] 0.075 | [5] -0.13

SH2D3A (UniProt Q9BRG2)
inactive: [1] 0 | [2] -0.234

SFT2D2 (UniProt O95562)
inactive: [1] -0.01 | [2] 0.058 | [3] -0.037 | [4] 0.065 | [5] -0.009

SLC16A1 (UniProt P53985)
inactive: [1] -0.015 | [2] 0.002 | [3] 0.042 | [4] 0.077 | [5] -0.245

SF1 isoform 5 (UniProt Q15637)
inactive: [1] 0.048 | [2] -0.005 | [3] -0.006 | [4] 0.023 | [5] -0.008

SF3A1 (UniProt Q15459)
inactive: [1] -0.004 | [2] 0.017 | [3] 0.011 | [4] 0 | [5] -0.037

SLC11A2 isoform 3 (UniProt P49281)
inactive: [1] -0.081 | [2] -0.017 | [3] 0.016 | [4] -0.01 | [5] 0.003

SF3B2 (UniProt Q13435)
inactive: [1] 0.029 | [2] 0.021 | [3] 0.017 | [4] -0.012 | [5] -0.025

SGO2 (UniProt Q562F6)
inactive: [1] 0.038 | [2] -0.058

SHFL (UniProt Q9NUL5)
inactive: [1] 0.167 | [2] -0.058 | [3] -0.04 | [4] -0.04

SEPTIN9 (UniProt Q9UHD8)
inactive: [1] -0.007 | [2] 0.037 | [3] -0.013 | [4] -0.007 | [5] -0.099

SKA3 (UniProt Q8IX90)
inactive: [1] -0.008 | [2] -0.002 | [3] -0.009 | [4] -0.016 | [5] -0.02

SF3B4 (UniProt Q15427)
inactive: [1] 0.032 | [2] -0.074 | [3] -0.024 | [4] -0.024 | [5] -0.092

SHPRH (UniProt Q149N8)
inactive: [1] -0.109 | [2] -0.037 | [3] 0.274 | [4] 0.061 | [5] 0.063

SLC15A4 (UniProt Q8N697)
inactive: [1] -0.011 | [2] -0.006 | [3] 0.074 | [4] 0.01 | [5] 0.05

SKA2 (UniProt Q8WVK7)
inactive: [1] -0.013 | [2] -0.038 | [3] 0.031 | [4] -0.004 | [5] 0.033

SKA1 (UniProt Q96BD8)
inactive: [1] -0.03 | [2] 0.005 | [3] 0.025 | [4] -0.018 | [5] 0.018

SIPA1 (UniProt Q96FS4)
inactive: [1] 0.029 | [2] 0.003 | [3] 0.066 | [4] 0.006 | [5] -0.005

SF3B1 (UniProt O75533)
inactive: [1] -0.004 | [2] 0.028 | [3] 0.011 | [4] -0.008 | [5] 0.015

SF3B3 (UniProt Q15393)
inactive: [1] -0.013 | [2] 0.001 | [3] 0.012 | [4] -0.003 | [5] 0

SHC1 isoform 6 (UniProt P29353)
inactive: [1] 0.019 | [2] 0.006 | [3] 0.056 | [4] 0.087 | [5] 0.25

SHMT2 (UniProt G3V2Y4)
inactive: [1] -0.058 | [2] 0.165

SERPINH1 (UniProt P50454)
inactive: [1] 0.01 | [2] 0.021 | [3] -0.003 | [4] -0.01 | [5] 0

SET isoform 2 (UniProt Q01105)
inactive: [1] 0.016 | [2] 0.011 | [3] -0.041 | [4] -0.02 | [5] -0.005

SETDB1 (UniProt Q15047)
inactive: [1] 0.016 | [2] 0.053 | [3] 0.04 | [4] 0.018 | [5] -0.057

SERPINI1 (UniProt Q99574)
inactive: [1] 0.067 | [2] -0.033 | [3] 0.031 | [4] -0.011 | [5] -0.021

SH3GLB1 isoform 2 (UniProt Q9Y371)
inactive: [1] 0.077 | [2] 0.014 | [3] 0.019 | [4] 0.031 | [5] -0.031

SFXN1 (UniProt Q9H9B4)
inactive: [1] -0.018 | [2] 0.014 | [3] 0.031 | [4] 0.026 | [5] 0.026

SHCBP1 (UniProt Q8NEM2)
inactive: [1] 0.056 | [2] 0.012 | [3] -0.032 | [4] -0.022 | [5] -0.039

SHROOM1 (UniProt Q2M3G4)
inactive: [1] 0.032 | [2] 0.013 | [3] 0.045 | [4] 0.013 | [5] 0

SETMAR (UniProt Q53H47)
inactive: [1] 0.035 | [2] 0.023 | [3] 0.025 | [4] -0.024 | [5] -0.014

SLC12A9 (UniProt Q9BXP2)
inactive: [1] -0.016 | [2] -0.022 | [3] 0.041 | [4] -0.042 | [5] -0.008

SLC12A2 (UniProt P55011)
inactive: [1] -0.056 | [2] 0.011 | [3] -0.049 | [4] -0.053 | [5] 0.106

SIRT5 (UniProt Q9NXA8)
inactive: [1] 0.006 | [2] 0.026 | [3] 0.082 | [4] 0.028 | [5] 0.043

SERPINB1 (UniProt P30740)
inactive: [1] -0.014 | [2] 0.039 | [3] -0.001 | [4] 0.027 | [5] 0.02

SIGMAR1 (UniProt Q99720)
inactive: [1] -0.025 | [2] -0.046 | [3] -0.034 | [4] 0.018 | [5] -0.124

SKAP2 (UniProt O75563)
inactive: [1] -0.038 | [2] 0.008 | [3] 0.022 | [4] -0.009 | [5] -0.039

SIN3A (UniProt Q96ST3)
inactive: [1] -0.01 | [2] -0.005 | [3] 0.02 | [4] 0.021 | [5] 0.045

SKP1 (UniProt P63208)
inactive: [1] 0.032 | [2] -0.107 | [3] -0.022 | [4] -0.015 | [5] -0.04

SERBP1 (UniProt Q8NC51)
inactive: [1] 0.027 | [2] -0.006 | [3] -0.006 | [4] 0.017 | [5] 0.015
